# Measured values from article PMC7819943, “Rice protein-binding microarrays: a tool to detect cis-acting elements near promoter regions in rice”.
# This is one part of the list.
# Target: T1, OsSMF1 (Oryza sativa, UniProt Q6ZLB0 1-436)
# T1 sequence: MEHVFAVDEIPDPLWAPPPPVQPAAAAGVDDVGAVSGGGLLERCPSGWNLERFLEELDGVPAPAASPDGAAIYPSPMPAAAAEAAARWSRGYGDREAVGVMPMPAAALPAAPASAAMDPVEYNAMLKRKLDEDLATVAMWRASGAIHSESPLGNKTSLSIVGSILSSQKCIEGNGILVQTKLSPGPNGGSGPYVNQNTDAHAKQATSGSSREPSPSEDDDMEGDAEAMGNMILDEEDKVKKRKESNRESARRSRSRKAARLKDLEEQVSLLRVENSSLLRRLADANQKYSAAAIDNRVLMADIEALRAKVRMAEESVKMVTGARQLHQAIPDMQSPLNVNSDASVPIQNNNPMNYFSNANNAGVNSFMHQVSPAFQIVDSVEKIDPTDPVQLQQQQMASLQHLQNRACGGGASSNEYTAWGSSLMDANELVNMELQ
# Assay: protein-binding microarray (RPBM); PBS, 2% BSA, 51.3 ng/ul salmon testes DNA, 50 uM zinc acetate, 200 nM TF, 25 C, 1 h; high values mean tight binding
# Details: protein: recombinant; tags: N-terminal polyhistidine and DsRed monomer fusion (pET32a); chain copies: 2; label: CyDye5-dUTP incorporated in the synthesized complementary strand; 3' TTTTT single-stranded linker to array surface; dsDNA, one strand shown
# Method in brief: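 A custom Agilent array was converted to double-stranded form by primer extension with Cy5-dUTP and blocked with 2% BSA. Protein at 200 nM in PBS with 2% BSA, salmon testes DNA and 50 µM zinc acetate was applied for 1 h at 25 °C, followed by washing. The proteins were polyhistidine–DsRed N-terminal fusions of transcription factors, expressed in E. coli BL21-CodonPlus and Ni–NTA-purified. The binding signal is per-feature fluorescence intensity (arbitrary units) from an Axon 4000B scanner.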
row,Sequence,binding signal
1,AAAACGGTGACACATCAAGGTTGTTCAGTGAAACCTGGATCGGAGTCACCTAGTGCAG,3360 fluorescence intensity (a.u.)
2,CGCCGACGTCTACCTCCTCGACGACGTCTTCAGCGCCGTCCGGAGTCACCTAGTGCAG,3210 fluorescence intensity (a.u.)
3,AATGGGCCGAGAGCAGTGACGCGTTGAGCCAGATTCCGGTCGGAGTCACCTAGTGCAG,3250 fluorescence intensity (a.u.)
4,TGGTCATTCTTCTTTGCCATGTTGGCATGTTGCACGGTACCGGAGTCACCTAGTGCAG,5260 fluorescence intensity (a.u.)
5,GCCAGCTGCCACGTGGGACAAAATCGGGGTCAAAACCACCCGGAGTCACCTAGTGCAG,12700 fluorescence intensity (a.u.)
6,GCGCGTGCCCCACCCGTCATTGGCGTGGCGTGTGGTATGGCGGAGTCACCTAGTGCAG,3660 fluorescence intensity (a.u.)
7,ACATCTTCTTCACAAGGACCGGCATTGCGAGGGCGTGGCCCGGAGTCACCTAGTGCAG,3220 fluorescence intensity (a.u.)
8,ATAGTACTTGTGTTTGATTTCGATTGAAGCCTATTCATTGCGGAGTCACCTAGTGCAG,3210 fluorescence intensity (a.u.)
9,GCCGACGAGAGGGAGCCGAAGGTCGACGTCGTGGCGACGCCGGAGTCACCTAGTGCAG,3930 fluorescence intensity (a.u.)
10,GAGTATACGTTCCGATTCCATTTTCGAGAAAATAAAATGACGGAGTCACCTAGTGCAG,11400 fluorescence intensity (a.u.)
11,CTTAGTGGTGGGTATAATATCTCGTCAGCTTCGCGCAAGCCGGAGTCACCTAGTGCAG,5410 fluorescence intensity (a.u.)
12,GGCAACAAGCTCCTACGCCGATGAGGTGGCCCAGCTTGTCCGGAGTCACCTAGTGCAG,3380 fluorescence intensity (a.u.)
13,GATTCGTTTGTGCACGGCCCAACGTGTCACGGAGCCCATTCGGAGTCACCTAGTGCAG,12800 fluorescence intensity (a.u.)
14,GCCAAGATTACGTGCAGCTGAACAAGTCCAGGTACACTTACGGAGTCACCTAGTGCAG,4310 fluorescence intensity (a.u.)
15,CGTGCGTACGTGATACTAGTGCGGTGGCGATCGAGCCACGCGGAGTCACCTAGTGCAG,3700 fluorescence intensity (a.u.)
16,CACCCCTAACCCAAAGACCAAGAAAATAATTATTATCATCCGGAGTCACCTAGTGCAG,3350 fluorescence intensity (a.u.)
17,AAATCATGAAAATAACATAGTTCTTCAAATAGATGGTAGACGGAGTCACCTAGTGCAG,3250 fluorescence intensity (a.u.)
18,ACACTATTAATTGTTTTATTAGGTTTCAGACGTTATTTTGCGGAGTCACCTAGTGCAG,3150 fluorescence intensity (a.u.)
19,AAGCCACGGTTCCATACCAATAAATACTACTACTACGTTTCGGAGTCACCTAGTGCAG,3250 fluorescence intensity (a.u.)
20,AATGTTTGACGTGTAACATATCCAATATTAAAGTTTGAGTCGGAGTCACCTAGTGCAG,7340 fluorescence intensity (a.u.)
21,CATATATATATATATAGACTTTGTATACGTGTATACAAAGCGGAGTCACCTAGTGCAG,3860 fluorescence intensity (a.u.)

# Some values from the list.
# binding signal with CATATATATATATATAGACTTTGTATACGTGTATACAAAGCGGAGTCACCTAGTGCAG is entered as 3860 fluorescence intensity (a.u.)
# binding signal with GATTCGTTTGTGCACGGCCCAACGTGTCACGGAGCCCATTCGGAGTCACCTAGTGCAG is entered as 12800 fluorescence intensity (a.u.)

# More records follow.

row,Sequence,binding signal
1,AGCTGGTTATAATATGGACAAAATGCTGAATTGTTTGGCACGGAGTCACCTAGTGCAG,31500 fluorescence intensity (a.u.)
2,GGACTCGTCCAGCACGACGCTGATGGATCTCATCACCTCGCGGAGTCACCTAGTGCAG,3630 fluorescence intensity (a.u.)
3,ATGCTGCCGACCGCCGCTGCCAACAAAGGAAGATAGAGTACGGAGTCACCTAGTGCAG,3870 fluorescence intensity (a.u.)
4,CCGTGCCCAGCCATAGGCCCAGGCATGGCCCAATAGTCATCGGAGTCACCTAGTGCAG,3280 fluorescence intensity (a.u.)
5,AGCGCCCAAGGTGGAGACGTGGAGTTGGCTGTGGGAGCAGCGGAGTCACCTAGTGCAG,4240 fluorescence intensity (a.u.)
6,GGACCGTTGATTATACGTGGCACATCGCAGGTACGGTCCCCGGAGTCACCTAGTGCAG,9800 fluorescence intensity (a.u.)
7,ATCGCACTTCACGCGCCAAATTAGTTAGTCGAAGCGTCAACGGAGTCACCTAGTGCAG,3180 fluorescence intensity (a.u.)
8,AACTGCAACTAATAAAGCCAGGTCCGGTCCCACGTCCCAGCGGAGTCACCTAGTGCAG,3260 fluorescence intensity (a.u.)
9,GGCCACGTCAATATGTCTTCACGTGTGTTTTCTCCTTTAACGGAGTCACCTAGTGCAG,10400 fluorescence intensity (a.u.)
10,GGGCGTGCTCCGTGTAGGTGACGGCGTCGCGGATGACGTTCGGAGTCACCTAGTGCAG,5500 fluorescence intensity (a.u.)
11,TCTATCTGGCTTCTGACATCACACTCACCTAAATGTTGTTCGGAGTCACCTAGTGCAG,3660 fluorescence intensity (a.u.)
12,AGCCACAAGATCAATACAAGCCAACATGCCCAACACACGTCGGAGTCACCTAGTGCAG,4330 fluorescence intensity (a.u.)
13,AGCGATCGGCTTGCTGACTCGGATCCACCCGCTTCTCTGACGGAGTCACCTAGTGCAG,14000 fluorescence intensity (a.u.)
14,TAGTGACTAGTGATCACAGATCAGTACTATATAAAAGAGTCGGAGTCACCTAGTGCAG,13700 fluorescence intensity (a.u.)
15,GCCTCGAGGGAGTCCCTGAGTGCGTGGACAACGTCTCCGACGGAGTCACCTAGTGCAG,5100 fluorescence intensity (a.u.)
16,GATCCAAGAGTGGAGAAGGAGAGGGGTGGGGAGCCGGCGACGGAGTCACCTAGTGCAG,3900 fluorescence intensity (a.u.)
17,CCCACACCTGACAACCAATCACGTCTTGGTGGCCCACATCCGGAGTCACCTAGTGCAG,16900 fluorescence intensity (a.u.)
18,CAGCTTCCGCAGGACAGCGCGAATGTCACCGACGGCTCAGCGGAGTCACCTAGTGCAG,3660 fluorescence intensity (a.u.)
19,TGGATAAGGATGTGTGAGACGTGTGATCTTTACTTGTTGGCGGAGTCACCTAGTGCAG,3980 fluorescence intensity (a.u.)
20,TTTTCTTAAAGAGATTTCTTATACGATTCCTTCTATATTTCGGAGTCACCTAGTGCAG,10600 fluorescence intensity (a.u.)
21,CCACGCCTCCACCACCTCCGCATCACTAGCAAGCGCAAGCCGGAGTCACCTAGTGCAG,3610 fluorescence intensity (a.u.)
